For the experiment, the target named is SLR1(M28-A112) ΔTVHYNP(L93-E104) (rice (Oryza sativa)) (UniProt Q7G7J6). The experiment is described as follows: ITC; 10 μl aliquants of 400 μM OsGID1/GA3 into 1.4482 ml of 50 μM SLR1 variant, 30 °C, 20 mM sodium phosphate (pH 7.5), 150 mM NaCl, 2.0 mM β-ME, 0.1 mM GA3; both purified. A general note: ITC needs no label: the signal is the heat of the interaction.

The chains behind the UniProt entries cited, without tags or fusion partners. Where a name states a change or a piece, a line headed by the entry shows the natural chain unless it says otherwise.
UniProt Q7G7J6: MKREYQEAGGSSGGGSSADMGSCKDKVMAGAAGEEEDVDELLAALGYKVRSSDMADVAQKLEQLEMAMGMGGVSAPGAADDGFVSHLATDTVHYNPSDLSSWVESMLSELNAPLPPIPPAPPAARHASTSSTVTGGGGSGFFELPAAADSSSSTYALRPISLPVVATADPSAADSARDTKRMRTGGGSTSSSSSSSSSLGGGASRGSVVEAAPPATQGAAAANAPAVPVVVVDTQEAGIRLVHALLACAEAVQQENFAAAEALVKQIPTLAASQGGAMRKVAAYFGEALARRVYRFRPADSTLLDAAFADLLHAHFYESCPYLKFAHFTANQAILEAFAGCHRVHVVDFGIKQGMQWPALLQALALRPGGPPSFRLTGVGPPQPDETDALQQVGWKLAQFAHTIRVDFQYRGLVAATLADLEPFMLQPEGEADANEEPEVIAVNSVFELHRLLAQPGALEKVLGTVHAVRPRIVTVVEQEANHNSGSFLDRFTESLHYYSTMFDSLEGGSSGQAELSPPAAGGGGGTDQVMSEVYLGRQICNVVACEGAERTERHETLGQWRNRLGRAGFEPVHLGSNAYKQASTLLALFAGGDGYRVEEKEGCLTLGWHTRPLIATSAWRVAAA

Results on one molecule are retold here after PMC6286387, “Physical and thermodynamic characterization of the rice gibberellin receptor/gibberellin/DELLA protein complex” (Scientific Reports, 2018).

No constants are given. Whether binding was seen depends on the method and setting.

B1: OsGID1 (rice gibberellin receptor GID1), Trx-free, used as the OsGID1/GA3 complex (receptor, rice (Oryza sativa), UniProt Q6L545 1-354, looked up)
chain: MAGSDEVNRNECKTVVPLHTWVLISNFKLSYNILRRADGTFERDLGEYLDRRVPANARPLEGVSSFDHIIDQSVGLEVRIYRAAAEGDAEEGAAAVTRPILEFLTDAPAAEPFPVIIFFHGGSFVHSSASSTIYDSLCRRFVKLSKGVVVSVNYRRAPEHRYPCAYDDGWTALKWVMSQPFMRSGGDAQARVFLSGDSSGGNIAHHVAVRAADEGVKVCGNILLNAMFGGTERTESERRLDGKYFVTLQDRDWYWKAYLPEDADRDHPACNPFGPNGRRLGGLPFAKSLIIVSGLDLTCDRQLAYADALREDGHHVKVVQCENATVGFYLLPNTVHYHEVMEEISDFLNANLYY
notes: Gibberellin receptor GID1 of rice (Oryza sativa); theoretical MW of the dimer printed as 79.2 kDa; The printed mass (39.6 kDa a monomer) fits the whole protein; source: recombinant, purified
Take B1: the binding result was “no binding (tested: 50 μM SLR1 mutants and 400 μM OsGID1/GA3)”.
